Hit rate of the full screen: of about 390,000 compounds, about 760 (0.19%) were called active. The shares of active, inactive and inconclusive entries below differ from those in the screen. Calls come from the whole dose curve; as a rule, active = well fitted inhibition curve with a large enough effect; inconclusive = small, poorly fitted or top-dose-only effect; inactive = flat fitted curve, though single readings scatter. Potencies beside an inconclusive call are fits to weak or partial responses and may not hold up.
Experiment: qHTS for Inhibitors of Vif-A3F Interactions: qHTS; note: nearly all actives have a fitted effect of over 65% in size; for activity, negative = active: % of control where 0% means no effect
Conditions: HeLa A3F-eYFP + Vif (tagged APOBEC3F with the HIV-1 protein that degrades it), YFP fluorescence increase; series mostly up to 46.1 µM; activity, negative = active: at the top concentration
Excerpt: The recent discovery and characterization of host restriction factors, which provide a potent defense to invading retroviruses, has provided new targets for antiviral drug development. APOBEC3G (A3G) and APOBEC3F (A3F) are potent cytidine deaminases that block HIV-1 replication; HIV-1 expresses the Vif protein, which counteracts A3G and A3F by binding to them and inducing their proteasomal degradation. The Vif-A3G and Vif-A3F interactions provide two potential targets for development of small molecules which can interfere with the ability of Vif to degrade A3G or A3F. […] To identify inhibitors that can interfere with Vif mediated degradation of A3G and A3F, we have developed Hela cell lines that stably express A3G or A3F tagged with eYFP at the C-terminal end (A3G-eYFP or A3F-eYFP, respectively) and Vif. In the absence of an inhibitor, Vif induces degradation of A3G-eYFP and A3F-eYFP, and the cells are not fluorescent. In the presence of an inhibitor, it is expected that Vif will be unable to degrade A3G-eYFP and/or A3F-eYFP, resulting in an increase in yellow fluorescence. In this assays Vif A3F was screened against the Molecular Library Small Molecule Repository (MLSMR). NIH Chemical Genomics Center [NCGC] NIH Molecular Libraries Probe Centers Network [MLPCN] MLPCN Grant: MH093245 Assay Submitter (PI): Vinay Pathak, National Cancer Institute
5 uL of 700 cells/well of A3F-YFP cells are dispensed into black, clear bottom plates. The plates are incubated overnight at 37 deg C. 23 nL of compounds are added by pintool. The plates are incubated overnight at 37 deg C and then read on the TTP Acumen (Ex 488/ Em 500-530).
With `CCc1ccccc1OCC(=O)Nc1ccc(N2CCCC2)cc1C` the Potency was inconclusive: 22.4 µM [inhibitor, single point]. In the case of `COc1ccc(CCN(C)CC(=O)Nc2ccc(F)c(Cl)c2)cc1OC`, the Potency is reported as inconclusive: 35.5 µM [inhibitor, single point]. With `CCN(Cc1ccc(OC)cc1)c1ccc(-c2nc(-c3ccncc3)no2)cc1[N+](=O)[O-]` the “activity, negative = active” value was inactive: -1.39%. With `COCCNc1nc(C(C)(C)C)nc2c1nnn2Cc1ccccc1Cl` the Potency was inconclusive: 28.2 µM [inhibitor, single point]. For `CN(Cc1cnn(-c2ccc(F)cc2)c1)Cc1nc(Cc2ccccc2)no1`, the Potency was inconclusive: 35.5 µM [inhibitor, single point]. For `COc1cc(C2/C(=C(/O)c3ccc(F)cc3)C(=O)C(=O)N2CCCC(=O)O)ccc1O` (centres undefined), the Potency was inconclusive: 6.31 µM [inhibitor, single point]. For `Cc1ccc(-n2sc3ccccc3c2=O)cc1S(=O)(=O)N1CCCCC1`, the Potency was inconclusive: 35.5 µM [inhibitor, single point]. With `CCN1C(=S)SC(=O)C1=C1C=C(C)OC(C)=C1` the “activity, negative = active” value was inactive: -0.443%. With `CC(=O)c1cccc(OC(=O)Oc2cccc(C(C)=O)c2)c1` the Potency was inconclusive: 35.5 µM [inhibitor, single point]. In the case of `C=CCCC1CN(CCCC)S(=O)(=O)c2c(F)cccc2O1` (centres undefined), the “activity, negative = active” value is reported as inactive: -3.14%. For `C/C(=N\NC(=O)c1ccc([N+](=O)[O-])cc1)c1c(O)cc(C)oc1=O`, the Potency was inconclusive: 35.5 µM [inhibitor, single point]. In the case of `Cc1cccc(-n2[nH]c(C)c(C=Nc3ccc4[nH]c(=O)[nH]c4c3)c2=O)c1`, the Potency is reported as inconclusive: 35.5 µM [inhibitor, single point]. With `CCOc1ccc(NC(=O)c2ccccc2SC)cc1` the “activity, negative = active” value was inactive: -5.74%. With `CCN1C(=O)/C(=C2/Sc3ccccc3N2CC)S/C1=N\c1ncn[nH]1` the Potency was inconclusive: 22.4 µM [inhibitor, single point]. For `Cc1cc(/C=C2/SC(=O)N(CC(=O)N3CCCC3)C2=O)ccc1N1CCOCC1`, the Potency was inconclusive: 8.91 µM [inhibitor, partial curve, poor fit]. With `O=C(NC1CCS(=O)(=O)C1)c1c(NC(=O)C2COc3ccccc3O2)sc2c1CCCC2` (centres undefined) the Potency was inconclusive: 35.5 µM [inhibitor, single point]. For `Cc1cccc(NC(=O)c2cc(S(=O)(=O)N3CCC4(CC3)OCCO4)ccc2F)c1`, the Potency was inconclusive: 35.5 µM [inhibitor, single point]. In the case of `CCOC(=O)c1ccc(NC(=O)Cn2cc(C(=O)c3ccc(Cl)cc3)c(=O)c3ccc(C)nc32)cc1`, the Potency is reported as inconclusive: 22.4 µM [inhibitor, partial curve, poor fit]. With `CC(C)n1c(O)c(N=Nc2ccc(Cl)nn2)c2ccccc21` the Potency was inconclusive: 5.62 µM [inhibitor, full curve, poor fit]. In the case of `CCOc1cccc(C(=O)Nc2cccc(-c3nnc(-c4ccccc4)o3)c2)c1`, the “activity, negative = active” value is reported as inactive: -12.6%. For `CN(CCNC(=O)c1c[nH]c2c1ccc1ccccc12)CCNC(=O)c1c[nH]c2c1ccc1ccccc12`, the Potency was inconclusive: 12.6 µM [inhibitor, partial curve, poor fit]. With `O=C(O)CSc1c(-c2cccs2)[nH]c2ccccc12` the Potency was inconclusive: 5.62 µM [inhibitor, single point]. In the case of `CCc1ccc(NC(=S)N(Cc2ccccc2)Cc2ccccn2)cc1`, the Potency is reported as inconclusive: 35.5 µM [inhibitor, single point]. For `CCOC(=O)/C(C#N)=C/c1cn(CCOc2ccc(OC)cc2)c2ccccc12`, the “activity, negative = active” value was inactive: 1.49%. With `Cc1c(NC(=O)CSc2nnc(-c3ccncc3)o2)c(=O)n(-c2ccccc2)n1C` the Potency was inconclusive: 6.31 µM [inhibitor, single point]. In the case of `Cc1cccc(NC(=O)c2cnc3sccn3c2=O)c1`, the “activity, negative = active” value is reported as inactive: -1.09%. With `O=C(c1ccc(Br)o1)N1CC=C(c2ccccc2)CC1` the Potency was inconclusive: 3.55 µM [inhibitor, single point]. For `O=C(NCCCn1ccnc1)c1cc(-c2cccs2)on1`, the Potency was inconclusive: 11.2 µM [inhibitor, partial curve, poor fit]. In the case of `C(=N\Nc1nc2ccccc2[nH]1)/c1ccccc1`, the Potency is reported as inconclusive: 35.5 µM [inhibitor, single point]. In the case of `Cc1cc(=O)oc2cc(NC(=O)C(C)Oc3cccc(Cl)c3)ccc12` (centres undefined), the Potency is reported as inconclusive: 35.5 µM [inhibitor, single point]. In the case of `CC(=O)N1CCCc2cc(S(=O)(=O)N(C)CC(=O)Nc3ccc(Cl)cc3C)ccc21`, the “activity, negative = active” value is reported as inactive: 2.24%. For `CC(C)CN(C(=O)COC(=O)COc1ccc2c(c1)CCC2)c1c(N)n(Cc2ccccc2)c(=O)[nH]c1=O`, the Potency was inconclusive: 22.4 µM [inhibitor, single point]. For `O=C(Nc1cccc2c1CCCC2)C1CCCN(S(=O)(=O)c2cccc3nonc23)C1` (centres undefined), the Potency was inconclusive: 35.5 µM [inhibitor, single point]. In the case of `Nc1nc(-c2ccco2)c(-c2ccco2)s1`, the “activity, negative = active” value is reported as inactive: -11.6%. For `COc1cccc(C2C(C#N)=C(N)Oc3cc(N)ccc32)c1OC` (centres undefined), the “activity, negative = active” value was inactive: 0.147%. In the case of `Cn1c(=O)[nH]c(=O)c2c1nc(SCCO)n2CC(O)COc1ccccc1` (centres undefined), the Potency is reported as inconclusive: 20 µM [inhibitor, partial curve, poor fit]. With `O=[N+]([O-])c1ccc(Sc2nnnn2-c2ccccc2)nc1` the “activity, negative = active” value was inactive: 5.21%. With `CN1CCC(N(C)C(=S)NC(=O)c2cc(-c3cccc(Br)c3)nc3ccccc23)CC1` the “activity, negative = active” value was inactive: -1.12%. With `O=C(CCO)c1ccc(O)cc1` the “activity, negative = active” value was inactive: -3.23%. In the case of `CCN1CCN(CCCNC(=O)c2ccc3c(c2)sc2nc(-c4ccc(OC)cc4)cn23)CC1`, the Potency is reported as inconclusive: 12.6 µM [inhibitor, partial curve, poor fit]. In the case of `O=[N+]([O-])c1ccc(O)c(/C=N/Nc2nn[nH]n2)c1`, the “activity, negative = active” value is reported as inactive: 11.4%. With `N#C/C(=C\c1cccnc1)C(=O)Nc1cccc2ccccc12` the Potency was inconclusive: 22.4 µM [inhibitor, single point]. For `COc1cc(OC)cc(-c2cn[nH]c2N)c1`, the Potency was inconclusive: 22.4 µM [inhibitor, single point]. In the case of `CCOc1ccc(-c2c(C(=O)N/N=C/c3c[nH]c4ccccc34)nnn2-c2nonc2N)cc1`, the Potency is reported as inconclusive: 35.5 µM [inhibitor, single point].
Potency is the fitted concentration of half-maximal effect.
